# Laboratory results: PubChem BioAssay AID743458 (Peter MacCallum Cancer Centre, 2014)
# Assay: 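Find knock-downs that make vorinostat-resistant colon cancer cells sensitive again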 (follow-up of hits)
# Cell system: human HCT116-VR colon cancer cells made resistant to vorinostat
# Reagent: single siRNA or pool against human genes, 25 nM per single siRNA
# Duration: about 72 h after transfection, including 24 h of drug
# Conditions: vorinostat, 2.5 µM final, for 24 h
# Read-out: 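Cell viability by fluorescence and apoptosis by caspase 3/7 luminescence under vorinostat, background-corrected, averaged across two plate copies and given as fold change versus mock transfection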
# Direction: viability relative to mock: higher = more living cells than mock; caspase activity relative to mock: higher = more apoptosis than mock
# Active means: 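An siRNA counts as active if classed as reduced viability or as caspase activation, otherwise inactive; a hit class needed wells that remained healthy in the absence of drug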
# Here is a random part of about 1,800 deposited reagents. 732 of them (41%) were called active. 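Calls are per siRNA reagent; a gene was deemed confirmed only if most of its four siRNAs scored.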 Reagents against one gene are numbered here.
gene symbol,reagent,viability relative to mock,caspase activity relative to mock,viability hit class,caspase hit class,Call
CNGA1,1,1.14,1.27,no change,no change,inactive
CNGA1,2,1.02,1.01,no change,no change,inactive
CNGA1,3,0.5,2.06,reduced viability,no change,active
CNGA1,4,0.57,2.34,no change,no change,inactive
REM2,1,0.18,2.44,no change,no change,inactive
REM2,2,0.8,1.33,no change,no change,inactive
REM2,3,0.76,2.15,no change,no change,inactive
REM2,4,0.86,0.86,no change,no change,inactive
RARS2,1,0.98,1.13,no change,no change,inactive
RARS2,2,0.72,1.48,no change,no change,inactive
RARS2,3,0.79,1.17,no change,no change,inactive
RARS2,4,1,0.94,no change,no change,inactive
NPC1L1,1,1.02,1.4,no change,no change,inactive
NPC1L1,2,0.56,2.91,reduced viability,caspase activation,active
NPC1L1,3,0.8,1.34,no change,no change,inactive
NPC1L1,4,0.44,4.05,reduced viability,caspase activation,active
NAT8,1,0.44,4.65,reduced viability,caspase activation,active
NAT8,2,1,1.98,no change,no change,inactive
NAT8,3,0.84,1.69,no change,no change,inactive
NAT8,4,0.8,1.29,no change,no change,inactive
FAM177B,1,0.83,1.14,no change,no change,inactive
FAM177B,2,0.99,1.02,no change,no change,inactive
FAM177B,3,1.06,1.14,no change,no change,inactive
FAM177B,4,0.12,3.15,reduced viability,caspase activation,active
